This is an account of results in article PMC3547664.

This data set concerns T1, PhoB (Bacteroides fragilis YCH46).
T1 sequence (looked up): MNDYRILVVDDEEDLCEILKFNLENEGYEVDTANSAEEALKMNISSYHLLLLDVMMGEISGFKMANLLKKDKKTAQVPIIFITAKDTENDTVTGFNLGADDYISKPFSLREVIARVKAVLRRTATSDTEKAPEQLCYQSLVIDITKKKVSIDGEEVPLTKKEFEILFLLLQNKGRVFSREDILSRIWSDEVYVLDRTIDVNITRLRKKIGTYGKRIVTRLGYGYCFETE
Nature of the data set: EMSA. As to conditions: PhoB 1.5 or 15 uM, 10 ng DNA, 10 mM MgCl2; EMSA: 50 mM Tris-HCl pH 7.5, 50 mM KCl, 10 mM MgCl2, 0.5 mM EDTA, 30 min at 25 C; 5% polyacrylamide gel. PS B and PS E promoter fragments; recombinant protein; residues 1-229; label: none (SYBR Green I stain); probe letters rebuilt from the primers and the genome. In general terms: Mobility shift assays separate free from complexed probe on a gel.

Where a protein sequence is shown, tags need not be part of it.

On to “AACCTTGCTGCTGAACAGGCCGAATGCCTCGGTAAAAAGGAAAAGCACAATCAGCAGAATCGTAATACTCGTTACAAAACCGCTACAGGTCAATATTCCTTCTATAATTCTTTCAAAAACCTTCTTCATACCTTTTGATTTTCATGATGCAAAGAAACGGAGTAAGTATTAAGGAGGTGTGAATACGGTTTGAAGGAACTGTTTCAAACCTGTTACGTTTCTGTTACAAGACAAGATGCGGCACGTTTTGAAACAGGAATGTAACACGCTATTGCTTTATTTGCACATAAAATAGAATCCACCACAGGATTCACCACAGAGTACACAGAGTCTCGCAGAGAACACAGACTCTCGCAGAGAAATTCGTTTTCTCTAAAATACTGTAACAAAAGATTAAAGACCTGTGGAACTCTGTGTTACTCTGTGGTGAATCAAACTCAAAACTTAATCATATGAAAGTTAGAACTATCTTATTCGCCGCCCTCTCACTCGCAGCATTGCATGCCAACGCT (double strand) [pstC promoter fragment]”, for which the binding result is on record as “binds”.
